test system: tumor tissue; assay: Estimated PDT threshold doses for several photosensitizers (photodynamic threshold model); settings: at the wavelength printed with each photosensitizer
Protocol: In these simulations, we assumed intravenous administration of a light-absorbing drug and the placement of a light emitter in the endovascular system at the site of tumor encroachment around it. Light absorbed by the photosensitizer was assumed to result in the local creation of short-lived cytotoxic radicals, causing cell death e.g. hemorrhagic tissue necrosis and apoptosis. To quantify the attainable effects, light-dose escalation studies were performed using Monte Carlo light propagation simulations (FullMonteCUDA) (“High-performance, robustly verified Monte Carlo simulation with FullMonte,” J. Biomed. Opt. 23(8), 085001 (2018)). The use of the photosensitizer BPD-MA mediated PDT was initially investigated in a simple “cube and tube” geometry representing the pancreas and a vessel traversing its center. The multilayered tube represented the vascular wall layers, intima, media and adventitia having an air-filled balloon with a linear line source in the center. […] Simulation properties were assigned as described above and PDT activation energies were escalated over the range of 10-100 J cm^−1 diffuser length, and the anticipated threshold dose in mJ·cm^−3 and radii of necrosis were estimated based on the photodynamic threshold model introduced by Patterson M, Wilson B C, Graff R: In vivo test of the concept of photodynamic threshold dose in normal rat liver photosensitized by aluminum chlorosulfunated phthalocyanine. Photochem Photobiol, 51(3): 343-349, 1990.
The pancreatic model is shown in FIG. 7A comprising a 4×4×5 cm cube, one half is assigned with optical properties of normal pancreatic tissue and the other half with those of cancerous pancreatic tissues. Running through the cube's center is a blood vessel made up of three layers, intima, media, adventitia, with assigned properties from the literature for aortic tissues. An initial dose-escalation simulation investigated if an adequate fluence [J·cm^−2] can be delivered through the vessel wall to create a surgically sufficiently large circumferential necrotic margin (mm) surrounding the vessel, based on the photosensitizer accumulation and the sensitizer's molar extinction coefficient. The vessel's inner diameter and wall thickness were set to 7.0 mm and 1.30 mm, respectively. The energy emitting source was cylindrical in shape with a length of 20 mm and the irradiance at the intima surface was fixed at 200 mW·cm^−2. The exposure times escalated to deliver 10 to 100 J total energy. An example of the absorbed energy density as a function of radius from the vessel center is shown in FIG. 7B, with an estimated necrotic margin ranging from […]. The subsequent necrotic clearing of viable tumor tissue from the adventitia is predicted based on the threshold model for common photosensitizers, see Tables 1 and 2.

Molecule | 2.3 ϵC [cm⁻¹]
Photofrin | 0.02
benzoporphyrin derivative monoacid ring A [Verteporfin] | 2.50
c1ccc2c(c1)-c1nc-2nc2[nH]c(nc3nc(nc4[nH]c(n1)c1ccccc41)-c1ccccc1-3)c1ccccc21 [Phthalocyanine] | 3.25
C=Cc1c(C)c2cc3nc(c(CC(=O)N[C@@H](CC(=O)O)C(=O)O)c4[nH]c(cc5nc(cc1[nH]2)C(C)=C5CC)c(C)c4C(=O)O)[C@@H](CCC(=O)O)[C@@H]3C [Talaporfin] | 0.20
